{"source": "patent US20240390369A1", "about": "“METHODS FOR DETERMINING RESPONSIVENESS TO TYK2 INHIBITORS” (Bristol-Myers Squibb Company, priority 2021, published 2024)", "test_system": "patients with psoriatic arthritis", "assay": "Phase 2 trial in psoriatic arthritis: ACR20 response at week 16", "assay_type": "in vivo, human", "conditions": "12 mg QD", "procedure": "In a double-blind Phase 2 trial, 203 patients with psoriatic arthritis were randomized into three groups: deucravacitinib 6 mg once daily (N=70), deucravacitinib 12 mg once daily (N=67), or placebo (N=66). All subjects had active psoriatic arthritis according to the Classification Criteria for Psoriatic Arthritis (CASPAR); for active disease, these criteria required ≥3 tender joint count, ≥3 swollen joint count, and a C-reactive protein level above 3 mg/L. Other inclusion criteria included the following: presence of at least one plaque psoriasis lesion, and prior treatment failure with a non-biologic disease modifying anti-rheumatic drug, a non-steroidal anti-inflammatory drug, or a steroid. With respect to treatment history, approximately 70% of subjects had not received prior treatment with a biologic and were biologic naïve, while up to 30% of subjects had failed or had been intolerant to one TNF-inhibitor (TNF=Tumor necrosis factor, also known as TNFα). Randomization was stratified by prior TNF-inhibitor use (experienced/naïve) and body weight (<90 kg and ≥90 kg).\nClinical measures included the Psoriasis […] (PASI) score for skin psoriasis, American College of Rheumatology 20 (ACR20) response, Psoriatic Arthritis Disease Activity Score (PASDAS), Health Assessment Questionnaire-Disability Index (HAQ-DI), and Disease Activity Score 28 CRP (DAS28). To evaluate the predictive value of different protein measurements for the clinical response to deucravacitinib, baseline protein concentrations for responders and non-responders, as defined by ACR20 or PASI75 at week 16, were compared for each arm (placebo, 6 mg deucravacitinib once-daily, and 12 mg deucravacitinib once-daily).\nBoxplots for baseline protein level by response were generated with a horizontal line indicating the median protein level at baseline. For each treatment arm, a two-sample t-test was performed to test whether mean baseline serum protein level was different in responders versus non-responders. […]", "note": "This continues a long series; more values of the same kind are listed elsewhere."}
{"smiles": "[2H]C([2H])([2H])NC(=O)c1nnc(NC(=O)C2CC2)cc1Nc1cccc(-c2ncn(C)n2)c1OC", "note": "[deucravacitinib, 6-(cyclopropanecarboxamido)-4-((2-methoxy-3-(1-methyl-1H-1,2,4-triazol-3-yl)phenyl)amino)-N-(methyl-d3)pyridazine-3-carboxamide]", "values": [{"measurement": "Number of subjects", "setting": "ACR20 non-responder at week 16, above median baseline IL-17A level", "value": 10}, {"measurement": "Number of subjects", "setting": "ACR20 responder at week 16, above median baseline IL-17A level", "value": 21}, {"measurement": "Number of subjects", "setting": "ACR20 responder at week 16, below median baseline IL-17A level", "value": 20}]}
